One molecule from patent publication US9132174 (ANCHORED RSK3 INHIBITORS, dated 2015) can be followed below.

Experiment [1] concerns the target HA-tagged full-length RSK2. Nature of the experiment: co-immunoprecipitation, COS-7 cells.
Experiment [2] has as its target HA-RSK3 DN30 (N-terminally truncated RSK3 mutant). Nature of the experiment: co-immunoprecipitation, COS-7 cells.

No constants are given. Whether binding was seen depends on the method and setting. In cells and extracts the contact can be indirect. Sequences can lack the tags named with a protein.

B1: myc-tagged mAKAP RSK binding domain (RBD), mAKAP 1694-1833 (protein, UniProt Q9WVC7 1694-1833, looked up, not shown: small tags and cut ends)
chain: ELSLCSEDIVLHKNKIPESNASFRKRLNRSVADESDVNVSMIVNVSCTSACTDDEDDSDLLSSSTLTLTEEELCLKDEDDDSSIATDDEIYEESNLMSGLDYIKNELQTWIRPKLSLTREKKRSGVTDEIKVNKDGGGNE
On to B1, for which the binding result in experiment [1] and in experiment [2] was “no binding” each time.
